These are yes or no findings as the source states them, for the method shown. In cells and extracts the contact can be indirect. These calls come from enrichment with a bait or labelling near it, and not all partners need be listed.
B1: Rho Gtpase Activating protein 29 (protein, UniProt Q8CGF1 1-1266)
chain: MIAHKQKKAKKKRVWASGQPSAAITTSEMGLKSVSSSSSFDPEYIKELVNDVRKFSHMLLYLKEAILSDCFKEVIHIRLDELLRVLKSILSKHQNLSSVDLQSAAEVLTAKVKAVNFTEVNEENKNDIFREVFSSIETLAFTFGNILTNFLMGDVGSDSILRLPISRESKSFENISVDSVDLPHEKGNFSPIELDNLLLKNTDSIELALSYAKTWSKYTKNIVSWVEKKLNLELESTRNIVKLAEATRSSIGIQEFMPLQSLFTNALLSDIHSSHLLQQTIAALQANKFVQPLLGRKNEMEKQRKEIKDLWKQQQNKLLETETALKKAKLLCMQRQDEYEKAKSSMFRAEEEQLSSSVGLAKNLNKQLEKRRRLEEEALQKVEEANEHYKVCVTNVEERRNDLENTKREILTQLRTLVFQCDLTLKAVTVNLFHMQQLQAASLANSLQSLCDSAKLYDPGQEYSEFVKATSSSELEEKVDGNVNKQMTNSPQTSGYEPADSLEDVARLPDSCHKLEEDRCSNSADMTGPSFVRSWKFGMFSDSESTGGSSESRSLDSESISPGDFHRKLPRTPSSGTMSSADDLDEREPPSPSEAGPNSLGAFKKTLMSKAALTHKFRKLRSPTKCRDCDGIVMFPGVECEECLLVCHRKCLENLVIICGHQKLQGKMHIFGAEFIQVAKKEPDGIPFVLKICASEIENRALCLQGIYRVCGNKIKTEKLCQALENGMHLVDISEFSSHDICDVLKLYLRQLPEPFILFRLYKEFIDLAKEIQHVNEEQEAKKDSPEDKKHPHVSIEVNRILLKSKDLLRQLPASHFNSLHYLIAHLRRVVDHAEENKMNSKNLGVIFGPTLIRPRPTTAPVTISSLAEYSNQARLVEFLITYSQKIFDGSLQPQAVVISNTGAVAPQVDQGYLPKPLLSPDERDTDHSMKPLFFSSKEDIRSSDCESKSFELTTSFEESERRQNALGKCDAPLLDNKVHLLFDQEHESASQKMEDVCKSPKLLLLKSNRAANSVQRHTPRTKMRPVSLPVDRLLLLASSPTERSSRDVGNVDSDKFGKNPAFEGLHRKDNSNTTRSKVNGFDQQNVQKSWDTQYVRNNFTAKTTMIVPSAYPEKGLTVNTGNNRDHPGSKAHAEPARAAGDVSERRSSDSCPATAVRAPRTLQPQHWTTFYKPPNPTFSVRGTEEKTALPSIAVPPVLVHAPQIHVTKSDPDSEATLACPVQTSGQPKESSEEPALPEGTPTCQRPRLKRMQQFEDLEDEIPQFV
B2: OTU Deubiquitinase 7B (protein, UniProt B2RUR8 1-840)
chain: MTLDMDAVLSDFVRSTGAEPGLARDLLEGKNWDVSAALSDFEQLRQVHAGNLSPPFSGGSTCPKTPEKGGSDREPTRPSRPILQRQDDVIQEKRLSRGISHASSSIVSLARSHVSSNGGGGGSSEHPLEMPICAFQLPDLTVYKEDFRSFIERDLIEQSMLVALEQAGRLNWWVSMDSTCQRLLPLATTGDGNCLLHAASLGMWGFHDRDLVLRKALYALMEKGVEKEALRRRWRWQQTQQNKESGLVYTEDEWQKEWNELIKLASSEPRMHLGSNGASGGGVESSEEPVYESLEEFHVFVLAHVLKRPIVVVADTMLRDSGGEAFAPIPFGGIYLPLEVPASQCHRSPLVLAYDQAHFSALVSMEQKESAKEQAVIPLTDSEHKLLPLHFAVDPGKGWEWGKDDNDNVRLASIILSLEVKLHLLHSYMNVKWIPLSSDSQAPLAQPESPTASAGDEPRSTPESGESDKESVGSSSLGNEGSRRKEKSKRDREKDKKRADSVANKLGSFGKTLGSKLKKNMGGLMHSKGPKPGGLGSGSGISSGTETLEKKKKNNTLKSWKGGKEEAAGDGPVSEKPPSESVGNGGSKYSQEVMQSLSTMRIAMQGEGKYIFVGTLKMGHRHQYQEEMIQRYLADAEERFLAEQKQKEVERKIMNGGLVSGPPPAKKPEPDGGEDQPSDSPAEPKAMAFSTAYPGGFTIPRPSGGGVHCQEPRRQLAGGPCVGGLPSYATFPRQYPGRPYPHQDNIPALEPGKDGVHRGALLPPQFRVADSYSNGYREPPEPDGWAGAPRGLPPTQTKCKQPNCSFYGHPETNNLCSCCYREELRRREREPGGELLAHRF
B3: 2′-5′-Oligoadenylate Synthetase 2 (protein, UniProt E9Q9A9 1-742)
chain: MGNWLTGNWSSDRSSGYSSGWSPGGSSGVPSGPVHKLEKSIQANLTPNENCLKQIAVSSVPSQKLEGYIQENLKPNRESLKQIDQAVDAIWDLLRSQIPVKEVAKGGSYGRETALRGCSDGTLVLFMDCFQQFQDQIKYQDAYLDVIELWLKIHEKKSVKHEHALVVQVSVPGQRILLQLLPVFNPLRSNENPSSCVYVDLKKSMDQVRASPGEFSDCFTTLQQRFFKKYPQRLKDLILLVKHWYEQCQEKWKTPPPQPLLYALELLTVYAWEQGCQAEDFDMAQGVRTVLRLIQRPTELCVYWTVNYNFEDETVRNILLHQLRSQRPVILDPTDPTNNVGKDDGFWELLTEEAMAWLYSPSLNTESPAPYWDVLPMPLFVTPSHLLNKFIKDFLQPNKLFLKQIKEAVDIICSFLKNVCFLNSDTKVLKTVKGGSTAKGTALKRGSDADIVVFLSSLESYDSLKTNRSQFVQEIQKQLEEFVQAQEWEVTFEISKWKAPRVLSFTLKSKTLNESVEFDVLPAYDALGQLRSDFTLRPEAYKDLIELCASQDIKEGEFSICFTELQRNFIQTRPTKLKSLLRLIKHWYKQYERKMKPKASLPPKYALELLTVYAWEQGSGTDDFDIAEGFRTVLDLVIKYRQLCIFWTVNYNFEEEYMRKFLLTQIQKKRPVILDPADPTGDVGGGDRWCWHLLAEEAKEWLSSPCFQVEQKGLVQPWKVPVMQTPGSCGGQIYPTVGGVTK
B4: Glutamine Rich 1 (protein, UniProt Q3UA37 1-777)
chain: MNNSLENTISFEEYIRVKARSVPQHRMKEFLDSLASKGPEALQEFQQTATTTMVYQQGGNCIYTDSTEVAGSLLELACPVTTSVQPQTQQEQQIQVQQPQQVQVQVQVQQSPQQVSAQQLSPQFTVHQPAEQPIQVQVQIQGQAPQSAAPSIQTPSLQSPSPSQLQAAQIQVQHVQAAQQIQAAEIPEEHIPHQQIQAQLVAGQSLAGGQQIQIQTVGALSPPPSQQGSPREGERRVGTASVLQPVKKRKVDMPITVSYAISGQPVATVLAIPQGQQQSYVSLRPDLLTVDSAHLYSATGTITSPTGETWTIPVYSAQPRGDPQQQSITHIAIPQEAYNAVHVSGSPKALAAVKLEDDKEKMVGTTSVVKNSHEEVVQTLANSLFPAQFMNGNIHIPVAVQAVAGTYQNTAQTVHIWDPQQQPQQQTAQEQTPPPQQQQQQLQVTCSAQTVQVAEVEPQSQPQPSPELLLPNSLKPEEGLEVWKNWAQTKNAELEKDAQNRLAPIGRRQLLRFQEDLISSAVAELNYGLCLMTREARNGEGEPYDPDVLYYIFLCIQKYLFENGRVDDIFSDLYYVRFTEWLHEVLKDVQPRVTPLGYVLPSHVTEEMLWECKQLGAHSPSTLLTTLMFFNTKYFLLKTVDQHMKLAFSKVLRQTKKSPSNPKDKSTSIRYLKALGIHQTGQKVTDDMYAEQTENPENPLRCPIKLYDFYLFKCPQSVKGRNDTFYLTPEPVVAPNSPIWYSVQPISREQMGQMLTRILVIREIQEAIAVANATTMH
B5: T-cell-specific guanine nucleotide triphosphate-binding protein 1 (protein, UniProt Q62293 1-415)
chain: MAWASSFDAFFKNFKRESKIISEYDITLIMTYIEENKLQKAVSVIEKVLRDIESAPLHIAVTGETGAGKSTFINTLRGVGHEEKGAAPTGAIETTMKRTPYPHPKLPNVTIWDLPGIGTTNFTPQNYLTEMKFGEYDFFIIISATRFKENDAQLAKAIAQMGMNFYFVRTKIDSDLDNEQKFKPKSFNKEEVLKNIKDYCSNHLQESLDSEPPVFLVSNVDISKYDFPKLETKLLQDLPAHKRHVFSLSLQSLTEATINYKRDSLKQKVFLEAMKAGALATIPLGGMISDILENLDETFNLYRSYFGLDDASLENIAQDLNMSVDDFKVHLRFPHLFAEHNDESLEDKLFKYIKHISSVTGGPVAAVTYYRMAYYLQNLFLDTAANDAIALLNSKALFEKKVGPYISEPPEYWEA
B6: NOP58 Ribonucleoprotein (protein, UniProt Q6DFW4 1-536)
chain: MLVLFETSVGYAIFKVLNEKKLQEVDSLWKEFETPEKANKIVKLKHFEKFQDTAEALAAFTALMEGKINKQLKKVLKKIVKEAHEPLAVADAKLGGVIKEKLNLSCIHSPVVNELMRGIRSQMDGLIPGVEPREMAAMCLGLAHSLSRYRLKFSADKVDTMIVQAISLLDDLDKELNNYIMRCREWYGWHFPELGKIISDNLTYCKCLQKVGDRKNYASASLSEFLSEEVEAEVKAAAEISMGTEVSEEDICNILHLCTQVIEISEYRTQLYEYLQNRMMAIAPNVTVMVGELVGARLIAHAGSLLNLAKHAASTVQILGAEKALFRALKSRRDTPKYGLIYHASLVGQSSPKHKGKISRMLAAKTVLAIRYDAFGEDSSSAMGIENRAKLEARLRILEDRGIRKISGTGKALAKAEKYEHKSEVKTYDPSGDSTLPTCSKKRKIEEVDKEDEITEKKAKKAKIKIKAEVEEEMEEEEAEEEQVVEEEPTVKKKKKKDKKKHIKEEPLSEEEPCTSTAVPSPEKKKKKKKKKDAED

Protein sequences, listed by entry. Tags and fused reporters are not part of them. Residues count along the entry.
UniProt Q9EP73, residues 19-290: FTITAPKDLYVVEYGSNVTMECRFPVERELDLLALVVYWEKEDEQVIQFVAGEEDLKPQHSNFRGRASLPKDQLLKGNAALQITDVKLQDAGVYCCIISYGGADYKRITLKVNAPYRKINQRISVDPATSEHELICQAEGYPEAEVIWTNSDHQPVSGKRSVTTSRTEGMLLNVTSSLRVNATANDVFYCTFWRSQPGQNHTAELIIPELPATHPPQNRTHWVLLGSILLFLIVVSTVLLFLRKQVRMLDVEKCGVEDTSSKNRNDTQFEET
UniProt Q8BTI9: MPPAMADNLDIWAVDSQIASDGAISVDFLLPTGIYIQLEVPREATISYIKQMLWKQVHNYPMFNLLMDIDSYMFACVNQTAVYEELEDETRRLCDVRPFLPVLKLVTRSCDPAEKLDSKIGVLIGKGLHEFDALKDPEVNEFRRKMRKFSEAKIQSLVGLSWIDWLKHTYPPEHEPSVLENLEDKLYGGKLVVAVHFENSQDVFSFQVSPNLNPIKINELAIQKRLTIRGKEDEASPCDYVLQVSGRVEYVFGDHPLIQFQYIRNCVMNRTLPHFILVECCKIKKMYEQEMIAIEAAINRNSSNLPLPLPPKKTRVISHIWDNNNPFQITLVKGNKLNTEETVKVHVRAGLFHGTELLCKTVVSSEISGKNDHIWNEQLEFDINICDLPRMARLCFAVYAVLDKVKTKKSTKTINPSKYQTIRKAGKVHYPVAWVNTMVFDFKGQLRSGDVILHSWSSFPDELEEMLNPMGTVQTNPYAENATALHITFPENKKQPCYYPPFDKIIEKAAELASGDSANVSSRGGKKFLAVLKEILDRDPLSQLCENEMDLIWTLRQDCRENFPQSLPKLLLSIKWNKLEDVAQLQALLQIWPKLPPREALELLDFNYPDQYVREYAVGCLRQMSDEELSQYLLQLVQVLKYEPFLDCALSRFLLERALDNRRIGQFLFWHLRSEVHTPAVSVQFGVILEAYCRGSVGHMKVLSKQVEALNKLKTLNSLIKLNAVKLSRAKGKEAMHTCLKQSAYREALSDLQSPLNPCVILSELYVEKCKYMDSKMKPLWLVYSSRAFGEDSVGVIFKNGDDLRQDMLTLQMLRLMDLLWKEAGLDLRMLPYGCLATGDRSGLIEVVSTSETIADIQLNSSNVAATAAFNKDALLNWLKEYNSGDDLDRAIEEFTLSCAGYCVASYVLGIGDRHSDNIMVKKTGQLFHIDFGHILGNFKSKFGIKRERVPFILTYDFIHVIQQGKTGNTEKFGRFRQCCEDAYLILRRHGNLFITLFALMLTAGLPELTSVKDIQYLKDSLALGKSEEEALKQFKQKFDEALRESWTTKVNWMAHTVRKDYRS
UniProt P61750: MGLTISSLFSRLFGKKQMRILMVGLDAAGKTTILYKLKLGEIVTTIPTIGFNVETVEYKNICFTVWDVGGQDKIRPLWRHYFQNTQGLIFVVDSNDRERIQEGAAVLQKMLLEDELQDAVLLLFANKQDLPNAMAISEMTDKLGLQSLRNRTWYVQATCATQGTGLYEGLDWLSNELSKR
UniProt P42227: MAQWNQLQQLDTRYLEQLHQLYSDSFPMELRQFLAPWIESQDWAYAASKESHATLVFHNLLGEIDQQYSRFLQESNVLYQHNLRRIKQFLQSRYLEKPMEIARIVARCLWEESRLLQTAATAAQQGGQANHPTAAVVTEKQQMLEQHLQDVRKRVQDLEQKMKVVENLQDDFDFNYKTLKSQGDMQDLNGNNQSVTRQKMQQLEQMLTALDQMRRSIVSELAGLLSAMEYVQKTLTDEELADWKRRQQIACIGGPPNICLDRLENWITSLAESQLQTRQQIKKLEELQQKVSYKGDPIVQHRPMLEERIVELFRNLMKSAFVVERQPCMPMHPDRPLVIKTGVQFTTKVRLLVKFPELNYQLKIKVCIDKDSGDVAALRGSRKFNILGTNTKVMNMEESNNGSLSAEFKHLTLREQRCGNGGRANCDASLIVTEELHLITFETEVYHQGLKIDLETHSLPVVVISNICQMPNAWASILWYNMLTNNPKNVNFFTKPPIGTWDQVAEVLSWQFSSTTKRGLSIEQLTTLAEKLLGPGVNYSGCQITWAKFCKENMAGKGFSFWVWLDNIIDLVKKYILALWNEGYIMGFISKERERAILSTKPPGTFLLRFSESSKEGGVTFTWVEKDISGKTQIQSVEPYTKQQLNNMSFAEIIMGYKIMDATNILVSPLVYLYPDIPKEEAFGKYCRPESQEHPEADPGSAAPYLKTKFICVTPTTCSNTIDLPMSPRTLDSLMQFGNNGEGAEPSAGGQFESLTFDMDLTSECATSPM
UniProt Q99K28: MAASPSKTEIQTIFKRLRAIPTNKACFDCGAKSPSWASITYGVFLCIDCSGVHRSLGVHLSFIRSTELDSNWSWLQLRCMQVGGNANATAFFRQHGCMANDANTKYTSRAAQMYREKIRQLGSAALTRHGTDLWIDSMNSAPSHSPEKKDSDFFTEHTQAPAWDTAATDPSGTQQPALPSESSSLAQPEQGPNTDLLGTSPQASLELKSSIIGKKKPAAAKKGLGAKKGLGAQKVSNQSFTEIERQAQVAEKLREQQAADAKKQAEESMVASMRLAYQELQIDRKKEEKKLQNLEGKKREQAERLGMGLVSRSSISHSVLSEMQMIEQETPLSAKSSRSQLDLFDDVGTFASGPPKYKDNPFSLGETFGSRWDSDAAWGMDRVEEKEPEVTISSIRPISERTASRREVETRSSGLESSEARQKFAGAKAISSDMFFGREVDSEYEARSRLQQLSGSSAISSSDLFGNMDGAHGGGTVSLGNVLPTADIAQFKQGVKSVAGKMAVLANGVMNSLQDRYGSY
UniProt A2A5R2: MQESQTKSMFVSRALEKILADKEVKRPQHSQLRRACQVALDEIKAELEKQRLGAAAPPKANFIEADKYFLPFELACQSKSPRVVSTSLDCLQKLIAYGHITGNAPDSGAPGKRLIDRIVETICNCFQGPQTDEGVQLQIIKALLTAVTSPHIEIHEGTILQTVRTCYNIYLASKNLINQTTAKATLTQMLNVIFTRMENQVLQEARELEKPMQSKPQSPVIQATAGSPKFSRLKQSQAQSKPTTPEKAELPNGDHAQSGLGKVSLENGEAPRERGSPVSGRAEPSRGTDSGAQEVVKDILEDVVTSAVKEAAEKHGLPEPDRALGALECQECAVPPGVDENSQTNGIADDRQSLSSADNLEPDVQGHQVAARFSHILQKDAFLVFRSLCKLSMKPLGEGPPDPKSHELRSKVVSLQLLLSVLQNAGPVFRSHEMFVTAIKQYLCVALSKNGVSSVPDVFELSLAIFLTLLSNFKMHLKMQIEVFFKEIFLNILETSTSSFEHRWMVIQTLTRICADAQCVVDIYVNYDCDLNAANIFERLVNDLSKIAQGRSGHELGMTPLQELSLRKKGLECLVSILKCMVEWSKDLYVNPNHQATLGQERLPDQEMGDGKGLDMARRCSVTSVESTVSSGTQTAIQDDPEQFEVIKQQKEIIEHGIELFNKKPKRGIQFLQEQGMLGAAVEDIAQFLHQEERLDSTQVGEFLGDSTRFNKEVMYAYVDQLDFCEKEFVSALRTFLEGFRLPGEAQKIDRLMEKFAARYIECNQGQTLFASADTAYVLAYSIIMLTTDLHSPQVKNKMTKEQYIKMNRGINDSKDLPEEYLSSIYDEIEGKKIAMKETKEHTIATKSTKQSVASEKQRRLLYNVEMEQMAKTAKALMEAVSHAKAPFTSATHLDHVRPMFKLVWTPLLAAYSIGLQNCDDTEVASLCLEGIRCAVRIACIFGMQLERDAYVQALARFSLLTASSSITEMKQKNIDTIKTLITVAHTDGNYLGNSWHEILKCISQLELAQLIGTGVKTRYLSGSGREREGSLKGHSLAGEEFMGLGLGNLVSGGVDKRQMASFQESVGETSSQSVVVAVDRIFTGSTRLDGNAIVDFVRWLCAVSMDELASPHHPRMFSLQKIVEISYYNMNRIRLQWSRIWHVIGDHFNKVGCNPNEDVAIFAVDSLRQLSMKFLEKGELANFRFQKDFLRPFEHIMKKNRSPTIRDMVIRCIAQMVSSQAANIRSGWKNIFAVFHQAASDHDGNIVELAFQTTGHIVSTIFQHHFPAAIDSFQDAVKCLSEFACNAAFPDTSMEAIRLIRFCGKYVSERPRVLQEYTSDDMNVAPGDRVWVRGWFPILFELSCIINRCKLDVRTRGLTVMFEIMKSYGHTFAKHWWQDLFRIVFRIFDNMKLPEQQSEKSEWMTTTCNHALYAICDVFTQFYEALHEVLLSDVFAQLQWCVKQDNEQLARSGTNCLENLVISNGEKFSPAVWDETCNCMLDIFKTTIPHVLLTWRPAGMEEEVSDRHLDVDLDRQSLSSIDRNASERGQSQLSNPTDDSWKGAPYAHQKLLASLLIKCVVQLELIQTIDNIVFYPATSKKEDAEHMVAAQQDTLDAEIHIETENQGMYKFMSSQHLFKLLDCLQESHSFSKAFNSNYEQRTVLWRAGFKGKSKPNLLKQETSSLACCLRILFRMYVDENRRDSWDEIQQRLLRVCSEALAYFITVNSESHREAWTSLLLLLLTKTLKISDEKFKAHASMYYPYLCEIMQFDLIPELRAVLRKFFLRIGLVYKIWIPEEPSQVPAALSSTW
UniProt P97393: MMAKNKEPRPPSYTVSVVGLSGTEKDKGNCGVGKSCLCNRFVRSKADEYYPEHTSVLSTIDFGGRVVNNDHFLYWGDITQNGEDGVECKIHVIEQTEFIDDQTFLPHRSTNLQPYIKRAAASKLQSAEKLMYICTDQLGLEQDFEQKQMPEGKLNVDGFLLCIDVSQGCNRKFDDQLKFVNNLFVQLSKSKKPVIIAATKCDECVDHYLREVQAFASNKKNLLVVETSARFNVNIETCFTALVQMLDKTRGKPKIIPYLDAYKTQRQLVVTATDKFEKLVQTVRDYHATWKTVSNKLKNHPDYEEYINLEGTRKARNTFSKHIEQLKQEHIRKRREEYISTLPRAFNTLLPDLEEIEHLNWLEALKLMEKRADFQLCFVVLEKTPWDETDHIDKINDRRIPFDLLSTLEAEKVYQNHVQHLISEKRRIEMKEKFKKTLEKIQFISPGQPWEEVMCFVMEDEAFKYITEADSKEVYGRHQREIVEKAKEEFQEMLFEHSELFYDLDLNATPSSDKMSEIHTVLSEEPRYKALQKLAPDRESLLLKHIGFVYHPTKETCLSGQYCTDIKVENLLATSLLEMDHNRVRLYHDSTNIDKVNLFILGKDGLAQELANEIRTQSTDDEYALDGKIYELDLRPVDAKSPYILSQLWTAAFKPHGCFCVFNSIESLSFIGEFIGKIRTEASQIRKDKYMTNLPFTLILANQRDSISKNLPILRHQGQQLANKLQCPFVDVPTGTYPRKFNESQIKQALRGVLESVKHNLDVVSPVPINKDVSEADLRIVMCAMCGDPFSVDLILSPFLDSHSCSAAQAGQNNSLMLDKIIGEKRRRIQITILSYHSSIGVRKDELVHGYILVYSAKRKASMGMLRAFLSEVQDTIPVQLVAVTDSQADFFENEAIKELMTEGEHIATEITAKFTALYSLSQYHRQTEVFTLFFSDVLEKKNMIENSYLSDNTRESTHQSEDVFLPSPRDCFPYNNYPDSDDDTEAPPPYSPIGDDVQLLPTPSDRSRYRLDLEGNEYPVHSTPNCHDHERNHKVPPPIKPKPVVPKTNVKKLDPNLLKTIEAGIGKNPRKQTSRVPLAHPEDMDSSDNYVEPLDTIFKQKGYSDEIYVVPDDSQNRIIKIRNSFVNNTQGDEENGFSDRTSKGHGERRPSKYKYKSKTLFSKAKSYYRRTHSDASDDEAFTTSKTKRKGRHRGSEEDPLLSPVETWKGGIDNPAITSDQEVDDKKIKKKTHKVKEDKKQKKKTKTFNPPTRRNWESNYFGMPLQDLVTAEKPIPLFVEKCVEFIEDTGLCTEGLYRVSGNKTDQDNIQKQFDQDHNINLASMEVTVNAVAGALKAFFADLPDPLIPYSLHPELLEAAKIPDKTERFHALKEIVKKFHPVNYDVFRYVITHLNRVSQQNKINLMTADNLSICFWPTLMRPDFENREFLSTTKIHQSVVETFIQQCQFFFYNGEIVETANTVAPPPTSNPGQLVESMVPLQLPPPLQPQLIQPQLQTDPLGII
UniProt Q9EPJ9: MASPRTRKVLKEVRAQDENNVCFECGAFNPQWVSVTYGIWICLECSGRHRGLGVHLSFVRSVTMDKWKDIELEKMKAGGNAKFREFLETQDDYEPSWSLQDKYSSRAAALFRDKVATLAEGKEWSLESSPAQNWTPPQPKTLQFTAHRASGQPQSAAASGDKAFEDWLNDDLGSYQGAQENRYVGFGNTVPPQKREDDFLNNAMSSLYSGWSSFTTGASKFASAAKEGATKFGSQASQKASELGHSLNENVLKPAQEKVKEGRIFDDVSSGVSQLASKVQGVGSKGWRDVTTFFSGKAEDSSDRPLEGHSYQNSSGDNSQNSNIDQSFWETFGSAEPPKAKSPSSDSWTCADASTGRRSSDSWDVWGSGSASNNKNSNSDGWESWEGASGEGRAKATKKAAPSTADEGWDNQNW

These molecules were tested against WT PD-L1 (programmed death ligand 1) tagged with GFP (mouse) (UniProt Q9EP73) (assay: affinity purification with mass spectrometry; GFP-tagged PD-L1 precipitated from SVEC4-10 lysate overnight with GST-tagged anti-GFP nanobody on GST beads, washed 4x in TBS with 0.1% Tween-20; cells with or without sodium vanadate; in-gel trypsin digest, LC-MS/MS; N = 6 samples per cell type).
“Obscurin Like Cytoskeletal Adaptor 1 (from UniProt D3YYU8 1-1804)” was tested, and the binding was “binds”. In the case of “Adenosylhomocysteinase Like 1 (from UniProt Q80SW1 1-530)”, the binding is reported as “binds”. “TBC1 Domain Family Member 23 (from UniProt Q8K0F1 1-684)” was tested, and the binding was “binds”. PIK3C3 (from UniProt Q6PF93 1-887) was tested, and the binding was “binds”. In the case of PIK3CB (from UniProt Q8BTI9 1-1064), the binding is reported as “binds”. For “Salt Inducible Kinase 2 (from UniProt Q8CFH6 1-931)”, the binding was “binds”. In the case of “ADP ribosylation factor4 (from UniProt P61750 1-180)”, the binding is reported as “binds”. “Signal transducer and activator of transcription 3 (from UniProt P42227 1-770)” was tested, and the binding was “binds”. In the case of Paxillin (from UniProt Q8VI36 1-591), the binding is reported as “binds”. For “ADP-ribosylation factor GTPase-activating protein 2 (from UniProt Q99K28 1-520)”, the binding was “binds”. In the case of “Brefeldin A-inhibited guanine nucleotide-exchange protein 2 (from UniProt A2A5R2 1-1792)”, the binding is reported as “binds”. “RuvB Like AAA ATPase 2 (from UniProt Q9WTM5 1-463)” was tested, and the binding was “binds”. “ADP-ribosylation factor GTPase-activating protein 3 (from UniProt Q9D8S3 1-523)” was tested, and the binding was “binds”. With Arhgap5 (from UniProt P97393 1-1503) the binding was “binds”. With “Prolyl 4-Hydroxylase Subunit Alpha 1 (from UniProt Q60715 18-534)” the binding was “binds”. With “ADP-ribosylation factor GTPase-activating protein 1 (from UniProt Q9EPJ9 1-414)” the binding was “binds”. With B1 the binding was “binds”. For B2, the binding was “binds”. B3 was tested, and the binding was “binds”. With B4 the binding was “binds”. With B5 the binding was “binds”. For B6, the binding was “binds”.
